# According to PubChem BioAssay AID504467 (National Center for Advancing Translational Sciences (NCATS), 2011):
# In all, about 330,000 compounds went through this assay and about 7,700 (2.3%) were called active. The inconclusive results got no clear call from the source; some entries with a clear call stand among them for comparison. The call rests on the fitted dose curve; in most records, active means well fitted inhibition curve with a large enough effect; inconclusive means small, poorly fitted or top-dose-only effect, or effect the other way; inactive means flat fitted curve, though single readings scatter. Potencies beside an inconclusive call are fits to weak or partial responses and may not hold up.
# Assay: qHTS screen for small molecules that inhibit ELG1-dependent DNA repair in human embryonic kidney (HEK293T) cells expressing luciferase-tagged ELG1; further: nearly all actives have a fitted effect of over 55% in size
# Details: HEK293T ELG1-luciferase reporter, luminescence, 16 h, DNA damage induced by 5-fluorouridine; activity change, negative = inhibition: at 46.1 µM (top of the series)
# Outline: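 5-Fluorouridine DNA damage + compound/DMSO, 2,000 cells/well, 16 h, 37 °C/5% CO2. ONE-Glo, 30 min RT, luminescence. Readout = decrease in reporter signal.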
# On the % scale 0 is the no-effect control and ±100 the full control effect; potency means the concentration at half of the fitted maximal effect.
SMILES,"activity change, negative = inhibition",Potency
Cc1cc2nc(-c3ccc[nH]c3=O)n(Cc3ccc(F)cc3)c2cc1C,inactive: 16.8%,–
Cc1cccc(-c2nnc(-c3ccc(N)cc3)o2)c1,–,"inconclusive: 0.92 µM [activator, full curve]"
COc1cccc(CNC(=O)c2ccc(C3SCCS3)cc2)c1,–,"inconclusive: 14.6 µM [activator, single point]"
CCCOc1ccc(/C=N/NC(=O)CSc2ccccn2)cc1OC,–,"inconclusive: 18.3 µM [activator, partial curve, poor fit]"
COc1ccc(-c2cnnc(N/N=C/c3ccc(O)c(OC)c3)n2)cc1,–,active: 20.6 µM
CCOCCCn1c(SCC(=O)Nc2ccccc2)nc2ccccc2c1=O,–,"inconclusive: 20.6 µM [inhibitor, single point]"
COc1ccc2cc(C3OCCO3)c(Cl)nc2c1,–,"inconclusive: 13 µM [activator, partial curve]"
O=C(COC(=O)c1cc[n+]([O-])cc1)Nc1ccc(Cl)c(C(F)(F)F)c1,inactive: -11.3%,–
Cc1cc(C=C2C(=O)c3ccccc3C2=O)c(C)n1-c1ccccc1,–,"inconclusive: 3.66 µM [activator, partial curve]"
CCOc1ccc(-c2csc(NC(=O)CSC3=NC(=O)CN3C(C)=O)n2)c2ccccc12,–,"inconclusive: 20.6 µM [activator, single point]"
COc1ccc(/C=C2\SC(=S)N(CCCC(=O)Nc3ccc(O)cc3)C2=O)cc1,–,"inconclusive: 29.1 µM [inhibitor, single point]"
O=C(CC(c1ccccc1)c1ccccc1O)N1CCCC1 (configuration not stated),–,"inconclusive: 20.6 µM [activator, partial curve, poor fit]"
O=C(NCc1ccncc1)C(=O)N/N=C/c1ccc(OCc2ccccc2)cc1,–,"inconclusive: 20.6 µM [activator, single point]"
CC(=O)c1c(C)nc2ccc(Br)cc2c1-c1ccccc1,–,"inconclusive: 20.6 µM [inhibitor, single point]"
CN(C)c1ccc(C(=O)NCc2ccc3c(c2)OCO3)cc1,inactive: 35%,–
CCOC(=O)c1c(NC(=O)OC)sc2c1CCC2,inactive: -0.32%,–
COc1ccccc1/C=C/C=N/n1c(-c2ccc(Cl)cc2)n[nH]c1=S,–,"inconclusive: 29.1 µM [inhibitor, partial curve, poor fit]"
Clc1ccc(Nc2ncnc3ccc(Br)cc23)cc1,–,"inconclusive: 14.6 µM [inhibitor, partial curve, poor fit]"
NC(=O)C1CCN(CC(=O)Nc2cccnc2Cl)CC1,inactive: -16.7%,–
O=C(Nc1ccccc1N1CCOCC1)c1ccc2nc[nH]c2c1,–,"inconclusive: 23.1 µM [activator, partial curve, poor fit]"
CC(=O)Nc1cccc(NC(=O)CSc2nc(C)c(C)c(C)c2C#N)c1,inactive: 21.1%,–
O=C(CSc1ccc(F)cc1)Nc1ccc(C2SCCS2)cc1,–,"inconclusive: 20.6 µM [activator, partial curve]"
COc1cc(-c2nnc3n(CCc4ccccc4)c(=O)c4ccccc4n23)cc(OC)c1OC,–,active: 20.6 µM
CCOc1cc(/C=C2\C(=O)N(c3ccc(C(N)=O)cc3)N=C2C)ccc1OC(=O)c1cccs1,inactive: 17.6%,–

SMILES,"activity change, negative = inhibition",Potency
COc1cccc(OC)c1C(=O)Nc1nc(COc2ccccc2)cs1,–,"inconclusive: 29.1 µM [inhibitor, single point]"
Cc1ccc(S(=O)(=O)NCCC(=O)N2CCN(c3cccc(Cl)c3)CC2)cc1C,–,"inconclusive: 29.1 µM [inhibitor, single point]"
O=C(NC1CCCCC1)c1ccc(-c2ccccc2F)o1,–,"inconclusive: 2.06 µM [activator, partial curve]"
CN1CCCN(c2ncnc3scc(-c4ccc(F)cc4)c23)CC1,inactive: 10%,–
CCCCc1nc2n[nH]c(N)c2c2c1CCC2,–,"inconclusive: 4.11 µM [activator, full curve, poor fit]"
CCOC(=O)c1ccccc1NC(=O)Cc1sc(-c2cccnc2)nc1-c1ccc(C)cc1,–,"inconclusive: 23.1 µM [inhibitor, partial curve]"
CN(C)c1ccc(NC(=O)/C=C/c2c(Cl)cccc2Cl)cc1,–,"inconclusive: 20.6 µM [activator, single point]"
COc1cccc(C(=O)O[C@H]2[C@H](C)NS(=O)(=O)[C@H]3C[C@@H]4C=C[C@]23O4)c1,inactive: 0.115%,–
COc1cc(C(=O)NCC2(c3ccccc3)CCCC2)cc(OC)c1OC,–,"inconclusive: 35.5 µM [inhibitor, single point]"
CC(=O)N1c2ccc(S(=O)(=O)N3CCCC3C(=O)Nc3cccc(F)c3)cc2CC1C (configuration not stated),inactive: -15%,–
O=C(CCC1N=C2c3ccccc3N=C(SCc3cccc(Cl)c3)N2C1=O)NCc1ccco1 (configuration not stated),–,"inconclusive: 32.6 µM [inhibitor, single point]"
COc1ccc(-n2nc(C(=O)NCC(=O)Nc3cc(OC)c(OC)c(OC)c3)c3ccccc3c2=O)cc1Cl,–,"inconclusive: 1.83 µM [inhibitor, full curve]"
CCOC(=O)N1CCN(C(=O)C(=O)Nc2sc3c(c2C(=O)O)CC(C)(C)OC3)CC1,inactive: 0.406%,–
O=C(OCC(=O)N1CCCC1)c1cc(Cl)ccc1[N+](=O)[O-],inactive: 8.46%,–
O=C1Cc2cc(NS(=O)(=O)c3ccc(F)cc3)cc3c2N1CCC3,–,"inconclusive: 5.17 µM [activator, single point]"
COc1ccc2nc(C(F)(F)Cl)c(C#N)c(N)c2c1,inactive: 15.4%,–
CC(=O)C1=NN(c2ccc(Cl)cc2)C(c2ccc3c(c2)OCO3)N(C(C)=O)N1C (configuration not stated),–,"inconclusive: 25.9 µM [inhibitor, single point]"
CC1=NN(C(=O)c2ccccc2Cl)C(O)(c2cccnc2)C1 (configuration not stated),inactive: 1.77%,–
CCOc1ccc(S(=O)(=O)N2CCC(C(=O)NCc3ccco3)CC2)cc1,inactive: -10.3%,–
CN(CCOc1ccc(Cl)cc1)C(=O)CN1C(=O)NC2(CCCC2)C1=O,inactive: -3.55%,–
CCc1ccccc1NC(=O)CN(c1ccc(OC)cc1OC)S(=O)(=O)c1ccccc1,inactive: -2.31%,–
NNCCc1ccccc1,–,"inconclusive: 14.6 µM [activator, partial curve]"
CCCn1c(SCC(=O)N(C2CCCCC2)C2CCS(=O)(=O)C2)n[nH]c1=O (configuration not stated),inactive: 27.2%,–
CN(CC(=O)Nc1ccc(Cl)c(C(F)(F)F)c1)C(=O)/C=C/c1cccs1,inactive: -19.1%,–

SMILES,"activity change, negative = inhibition",Potency
Cn1c(-c2cnn(-c3ccccc3)c2N)n[nH]c1=S,–,"inconclusive: 2.59 µM [activator, full curve, poor fit]"
CCOC(=O)C1CCCN(C(=O)c2ccc(Cl)c(S(=O)(=O)N3CCCCCC3)c2)C1 (configuration not stated),–,active: 10.3 µM
Cc1cccc(C)c1NC(=O)CN(C)CC(=O)Nc1ccccc1Oc1ccccc1,–,active: 11.6 µM
CC1(C)Cc2c(sc3nc(-c4ccccc4)oc(=O)c23)CO1,–,"inconclusive: 14.6 µM [activator, partial curve]"
COc1cc(C(=O)Nc2nc3ccc(S(=O)(=O)N4CCOCC4)cc3s2)cc(OC)c1OC,inactive: -29.2%,–
COc1ccccc1CNC(=O)CSc1ncc(C(=O)Nc2ccccc2)c(=O)n1C,–,"inconclusive: 8.2 µM [activator, single point]"
NC(=O)c1ccccc1NC(=O)CCc1ccccc1,–,"inconclusive: 14.6 µM [activator, partial curve]"
O=C1CN(C(=O)COc2ccc(Cl)c(Cl)c2)c2ccccc2N1,–,"inconclusive: 0.259 µM [activator, single point]"
c1ccc(-c2cc3ncccc3cn2)cc1,–,"inconclusive: 13 µM [activator, partial curve]"
CN1CCN(CC(=O)N2CCn3c4c(c5cc(C6CCCCC6)ccc53)CCCC42)CC1 (configuration not stated),–,"inconclusive: 18.4 µM [inhibitor, single point]"
N#C/C(=C\c1cccnc1)c1ccc(Br)cc1,inactive: -14.4%,–
O=C(Nc1nccs1)C1CCN(S(=O)(=O)c2ccc3c(c2)OCCCO3)CC1,–,"inconclusive: 10 µM [inhibitor, partial curve, poor fit]"
N#Cc1cccnc1N1CCN(C(=O)c2cccc3c2C(=O)c2ccc(Cl)cc2S3(=O)=O)CC1,–,"inconclusive: 29.1 µM [inhibitor, single point]"
COc1cccc(OC)c1C(=O)Nc1c(C(=O)N2CCN(c3ccccn3)CC2)oc2ccccc12,–,"inconclusive: 23.1 µM [inhibitor, partial curve, poor fit]"
CCC(=O)c1ccc(OCC(O)CN(CCc2ccccc2)Cc2ccccc2)cc1 (configuration not stated),–,"inconclusive: 22.4 µM [inhibitor, single point]"
Cc1cc2cc(C=O)c(Cl)nc2cc1C,inactive: 15.6%,–
COC(=O)C1=CN(c2ccc(OC)cc2)C=C(C(=O)OC)C1c1ccc(C)c([N+](=O)[O-])c1,inactive: -13.5%,–
Clc1ccc2c(NCc3ccccc3)ccnc2c1,–,"inconclusive: 10.3 µM [inhibitor, partial curve]"
COc1ccc(-c2csc(=NCCO)n2-c2ccccc2)cc1,–,"inconclusive: 13 µM [inhibitor, partial curve]"
CC1(C)NC(=O)N(CC(=O)N2CCN(S(=O)(=O)c3ccccc3C(F)(F)F)CC2)C1=O,inactive: -13.3%,–
O=C(CC12CC3CC(CC(C3)C1)C2)N/N=C/c1ccncc1,inactive: -2.66%,–
CC(C)(C)n1nnnc1C(c1ccc2ncccc2c1)N1CCSCC1 (configuration not stated),–,"inconclusive: 20.6 µM [inhibitor, single point]"
CN(Cc1cccs1)c1ncnc2sccc12,inactive: -14.5%,–
CC(C)(C)[C@H]1C=C(C(=O)N2CCN(Cc3ccccc3)CC2)O[C@@H](OCc2ccc(CO)cc2)C1,–,"inconclusive: 14.6 µM [inhibitor, partial curve]"

# Arranged by heavy-atom count (high to low): 16 of the compounds above.
SMILES,"activity change, negative = inhibition",Potency
COc1cccc(OC)c1C(=O)Nc1c(C(=O)N2CCN(c3ccccn3)CC2)oc2ccccc12,–,"inconclusive: 23.1 µM [inhibitor, partial curve, poor fit]"
CC(C)(C)[C@H]1C=C(C(=O)N2CCN(Cc3ccccc3)CC2)O[C@@H](OCc2ccc(CO)cc2)C1,–,"inconclusive: 14.6 µM [inhibitor, partial curve]"
N#Cc1cccnc1N1CCN(C(=O)c2cccc3c2C(=O)c2ccc(Cl)cc2S3(=O)=O)CC1,–,"inconclusive: 29.1 µM [inhibitor, single point]"
COc1cc(C(=O)Nc2nc3ccc(S(=O)(=O)N4CCOCC4)cc3s2)cc(OC)c1OC,inactive: -29.2%,–
COC(=O)C1=CN(c2ccc(OC)cc2)C=C(C(=O)OC)C1c1ccc(C)c([N+](=O)[O-])c1,inactive: -13.5%,–
CCC(=O)c1ccc(OCC(O)CN(CCc2ccccc2)Cc2ccccc2)cc1 (configuration not stated),–,"inconclusive: 22.4 µM [inhibitor, single point]"
CCOC(=O)C1CCCN(C(=O)c2ccc(Cl)c(S(=O)(=O)N3CCCCCC3)c2)C1 (configuration not stated),–,active: 10.3 µM
O=C(Nc1nccs1)C1CCN(S(=O)(=O)c2ccc3c(c2)OCCCO3)CC1,–,"inconclusive: 10 µM [inhibitor, partial curve, poor fit]"
CC(C)(C)n1nnnc1C(c1ccc2ncccc2c1)N1CCSCC1 (configuration not stated),–,"inconclusive: 20.6 µM [inhibitor, single point]"
COc1ccc(-c2csc(=NCCO)n2-c2ccccc2)cc1,–,"inconclusive: 13 µM [inhibitor, partial curve]"
O=C(CC12CC3CC(CC(C3)C1)C2)N/N=C/c1ccncc1,inactive: -2.66%,–
NC(=O)c1ccccc1NC(=O)CCc1ccccc1,–,"inconclusive: 14.6 µM [activator, partial curve]"
Cn1c(-c2cnn(-c3ccccc3)c2N)n[nH]c1=S,–,"inconclusive: 2.59 µM [activator, full curve, poor fit]"
CN(Cc1cccs1)c1ncnc2sccc12,inactive: -14.5%,–
c1ccc(-c2cc3ncccc3cn2)cc1,–,"inconclusive: 13 µM [activator, partial curve]"
Cc1cc2cc(C=O)c(Cl)nc2cc1C,inactive: 15.6%,–

# Some of the entries so far, tab-delimited:
SMILES	activity change, negative = inhibition	Potency
COc1ccc2cc(C3OCCO3)c(Cl)nc2c1	–	inconclusive: 13 µM [activator, partial curve]
Clc1ccc(Nc2ncnc3ccc(Br)cc23)cc1	–	inconclusive: 14.6 µM [inhibitor, partial curve, poor fit]
